The text below walks through data of US20110021746A1 (published 2011).

Chains of the proteins cited; added tags and fusions are not shown. Residues count along the entry.
UniProt P30530, residues 26-449: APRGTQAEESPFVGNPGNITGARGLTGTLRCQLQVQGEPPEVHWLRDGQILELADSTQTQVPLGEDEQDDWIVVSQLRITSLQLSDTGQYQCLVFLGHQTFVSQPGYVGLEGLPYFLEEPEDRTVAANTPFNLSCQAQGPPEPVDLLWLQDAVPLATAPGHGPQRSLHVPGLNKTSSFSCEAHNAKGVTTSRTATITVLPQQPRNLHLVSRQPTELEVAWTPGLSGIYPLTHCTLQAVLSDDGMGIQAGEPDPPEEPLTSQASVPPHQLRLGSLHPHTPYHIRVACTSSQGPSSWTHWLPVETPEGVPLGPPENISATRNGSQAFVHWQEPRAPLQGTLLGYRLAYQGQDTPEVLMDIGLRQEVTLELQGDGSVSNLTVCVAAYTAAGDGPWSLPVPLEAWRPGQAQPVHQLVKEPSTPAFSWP
UniProt P35968, residues 20-764: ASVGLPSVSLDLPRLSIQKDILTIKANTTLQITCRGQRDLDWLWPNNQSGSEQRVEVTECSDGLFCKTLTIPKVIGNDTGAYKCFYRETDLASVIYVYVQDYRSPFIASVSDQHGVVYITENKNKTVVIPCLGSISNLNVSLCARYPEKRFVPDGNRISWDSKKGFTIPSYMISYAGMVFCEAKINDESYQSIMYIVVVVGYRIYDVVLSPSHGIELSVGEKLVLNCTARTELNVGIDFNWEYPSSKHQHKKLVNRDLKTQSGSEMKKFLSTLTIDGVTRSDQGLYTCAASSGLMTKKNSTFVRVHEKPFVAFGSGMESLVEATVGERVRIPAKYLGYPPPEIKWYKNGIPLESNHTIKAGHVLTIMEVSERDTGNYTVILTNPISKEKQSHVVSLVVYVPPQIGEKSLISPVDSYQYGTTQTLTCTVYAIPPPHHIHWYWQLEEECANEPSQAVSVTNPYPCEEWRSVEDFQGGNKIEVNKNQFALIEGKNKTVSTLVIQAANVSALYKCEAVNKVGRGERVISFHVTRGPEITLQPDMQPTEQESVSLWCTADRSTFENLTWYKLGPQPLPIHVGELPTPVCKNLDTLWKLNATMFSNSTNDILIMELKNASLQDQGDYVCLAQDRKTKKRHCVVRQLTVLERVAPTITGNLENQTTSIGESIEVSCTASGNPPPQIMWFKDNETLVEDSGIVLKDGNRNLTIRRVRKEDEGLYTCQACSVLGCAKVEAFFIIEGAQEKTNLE

To fix the notation:
B1: SEQ ID NO 472 (designed binder)
chain: NVSPPRRARVTDATETTITITWGLAESKVVGFQVDAVPANGQTPIQRTIKPDVRSYTITGLQPGTDYKIYLYTLNGNVGGLTVVIDAST
B2: SEQ ID NO 471 (designed binder)
chain: NVSPPRRARVTDATETTITIRWSNGFQVDAVPANGQTPIQRTIKRTAPSYTITGLQPGTDYKIYLYTLNDNARSSPVVIDAST
B3: SEQ ID NO 480 (designed binder)
chain: B2 chain with R21S, S23A, N24V, T46D, A47V, P48R, S49A
B4: SEQ ID NO 498 (designed binder)
chain: B2 chain with S23A, N24A, T46N, A47I, P48N, Q56K
B5: SEQ ID NO 467 (designed binder)
chain: NVSPPRRARVTDATETTITITWTGSRGKFVGFQVDAVPANGQTPIQRTIKPDVRSYTITGLQPGTDYKIYLYTLYGYVSGSSPVVIDAST
B6: SEQ ID NO 469 (designed binder)
chain: NVSPPRRARVTDATETTITIRWELPRGEVTGFQVDAVPANGQTPIQRTIKGAKRGYTITGLQPGTDYKIYLYTLNDNARSSPVVIDAST
B7: SEQ ID NO 481 (designed binder)
chain: B6 chain with E23A, E28T, T30V, K50H, G51R, A52T, K53A, R54T, G55S
B8: SEQ ID NO 488 (designed binder)
chain: NVSPPRRARVTDATETTITIRWAQVLRFQVDAVPANGQTPIQRTIKRDVHSYTITGLQPGTDYKIYLYTLNDNARSSPVVIDAST
B9: SEQ ID NO 495 (designed binder)
chain: NVSPPRRARVTDATETTITIRWALPRSAFDRFQVDAVPANGQTPIQRTITTSIRTYTITGLQPGTDYKIYLYTLNDNARSSPVVIDAST
B10: SEQ ID NO 484 (designed binder)
chain: NVSPPRRARVTDATETTITISWAVPQSPIVSFQVDAVPANGQTPIHRTIDTGASGYTITGLQPGTDYKIYLYTLNDNARSSPVVIDAST
B11: SEQ ID NO 474 (designed binder)
chain: NVSPPRRARVTDATETTITITWARSQSTVVGFQVDAVPANGQTPIQRTIKPDVRSYTITGLQPGTDYKIYLYTLTVVGGSAYGSSPVVIDAST
B12: SEQ ID NO 477 (designed binder)
chain: B11 chain with T21S, A23K, Q26E, T28Q, T75N, G79R
B13: SEQ ID NO 465 (designed binder)
chain: NVSPPRRARVTDATETTITISWRTKTETITGFQVDAVPANGQTPIQRTIATGARVYTITGLQPGTDYKIYLYTLTGYGVGAVASSPVVIDAST
B14: SEQ ID NO 473 (designed binder)
chain: B13 chain with A50N, T51R, G52N, R54H, V55A, A81T
B15: SEQ ID NO 470 (designed binder)
chain: B13 chain with G52A, A53I, A81E, V82S, A83R
B16: SEQ ID NO 483 (designed binder)
chain: B13 chain with T51S, G52N, A53I, R54H, V55S, A83G
B17: SEQ ID NO 478 (designed binder)
chain: B13 chain with A53I, A81T, V82L, A83S
B18: SEQ ID NO 460 (designed binder)
chain: NVSPPRRARVTDATETTITIRWKGADFQVDAVPANGQTPIQRTITRGVRTYTITGLQPGTDYKIYLYTLNDNARSSPVVIDAST
B19: SEQ ID NO 464 (designed binder)
chain: B18 chain with K23A, G24V, A25P, D26G, T45H, R49S, T50V
B20: SEQ ID NO 463 (designed binder)
chain: B18 chain with K23S, G24I, A25T, D26G, T45N, T50S
B21: SEQ ID NO 462 (designed binder)
chain: B18 chain with A25D, D26R, R46S, R49T, T50G
B22: SEQ ID NO 494 (designed binder)
chain: B18 chain with K23G, G24Q, A25T, D26G, T45K, G47A, V48A, R49T, T50S
B23: SEQ ID NO 482 (designed binder)
chain: B18 chain with G24V, A25N, D26G, T45H, G47A, T50V
B24: SEQ ID NO 461 (designed binder)
chain: B18 chain with K23S, G24L, A25L, D26G, T45K, G47N, R49N, T50A
B25: SEQ ID NO 492 (designed binder)
chain: B18 chain with K23R, G24V, D26G, T45A, G47N, V48T, R49H, T50S
B26: SEQ ID NO 493 (designed binder)
chain: B18 chain with K23T, A25Q, D26R, T45K, R46T, G47T, V48I, R49H, T50G
B27: SEQ ID NO 491 (designed binder)
chain: B18 chain with K23G, G24V, A25T, D26G, T45K, G47N, V48A, T50S
B28: SEQ ID NO 490 (designed binder)
chain: B18 chain with K23G, G24E, A25L, D26G, T45K, G47A, V48A, R49N
B29: SEQ ID NO 487 (designed binder)
chain: B18 chain with G24V, A25L, D26G, T45K, G47N, V48I, R49S, T50S
B30: SEQ ID NO 489 (designed binder)
chain: B18 chain with G24V, A25P, D26G, T45A, T50V
B31: SEQ ID NO 485 (designed binder)
chain: B18 chain with K23A, G24V, A25P, D26G, T45Q, T50A
B32: SEQ ID NO 496 (designed binder)
chain: B18 chain with G24V, A25D, D26G, V32F, T45H, G47A, R49N, T50V, S75N, S76N
B33: SEQ ID NO 476 (designed binder)
chain: NVSPPRRARVTDATETTITISWRTKTETITGLQVDAVPANGQTPIQRTIATNENSYTITGLQPGTDYKIYLYTLNGRGATSSPVVIDAST
B34: SEQ ID NO 486 (designed binder)
chain: B33 chain with L32I, E53V, N54H, S55V, N75T, A79D, T80S
B35: SEQ ID NO 468 (designed binder)
chain: NVSPPRRACVTDATETTITISWRLAESKVVGFQVDAVPANGQTPIQRTIHTDTSSYTITGLQPGTDYKIYLYTLNTVGKSAVASSPVVIDAST
B36: SEQ ID NO 231 (designed binder)
chain: NVSPPRRARVTDATETTITIRWTLGISGNSIVPGFQVDAVPANGQTPIQRTINADTTTYTITGLQPGTDYKIYLYTLNDNARSSPVVIDAST
B37: SEQ ID NO 236 (designed binder)
chain: B36 chain with T23E, L24A, I26V, S27E, G28A, N29D, S30G, I31E, G34S, T57S
B38: SEQ ID NO 234 (designed binder)
chain: B36 chain with L24Q, I26V, G28R, S30G, I31T, V32I, T57S
B39: SEQ ID NO 232 (designed binder)
chain: B36 chain with L24V, G25P, I26V, G28A, S30G, I31Q, V32I, G34S, T56V, T57S
B40: SEQ ID NO 235 (designed binder)
chain: NVSPPRRARVTDATETTITIRWKQPIKPDSVIPSFQVDAVPANGQTPIQRTINADISTYTITGLQPGTDYKIYLYTLNDNARSSPVVIDAST
B41: SEQ ID NO 237 (designed binder)
chain: NVSPPRRARVTDATETTITIRWTRAGSEVDGFQVDAVPANGQTPIQRTINADTNVYTITGLQPGTDYKIYLYTLNDNARSSPVVIDAST
B42: SEQ ID NO 233 (designed binder)
chain: NVSPPRRARVTDATETTITISWRTKTETITGFQVDAVPANGQTPIQRTIETGARGYTITGLQPGTDYKIYLYTLNEDGGSAYTELTGVIDAST

Substitutions are numbered along the chain they refer to. No constants are given. Whether binding was seen depends on the method and setting. Some binding calls cover weakened binding; strength is not graded here.

One assay addresses Axl (UniProt P30530). The experiment in a line: phage display selection.
As to B1, the binding result is on record as “binds”.
On the same count and under the same terms, under B2 stands “binds”; under B3, “binds”; under B4, “binds”.
B5: the binding result is “binds”.
The same measure, in the same setting: then B6, with “binds”.
As to B7, the binding result is “binds”.
Same read-out and setting: under B8 stands “binds”; under B9, “binds”.
Take B10: the binding entry is “binds”.
The same measure, in the same setting: then B11, with “binds”; and B12, with “binds”; and B13, with “binds”.
On the same count and under the same terms, then B14, with “binds”; and B15, with “binds”; and B16, with “binds”.
The same measure, in the same setting: under B17 stands “binds”.
As to B18, the binding entry is listed as “binds”.
On the same count and under the same terms, then B19, with “binds”; and B20, with “binds”; and B21, with “binds”.
Same read-out and setting: then B22, with “binds”.
Still for that read-out and setting: under B23 stands “binds”.
Regarding B24, the binding entry is given as “binds”.
Still for that read-out and setting: then B25, with “binds”.
The same measure, in the same setting: then B26, with “binds”; and B27, with “binds”; and B28, with “binds”.
Same read-out and setting: under B29 stands “binds”.
B30: the binding result is reported as “binds”.
Same read-out and setting: then B31, with “binds”.
Turning to B32, the binding result is given as “binds”.
The same measure, in the same setting: under B33 stands “binds”.
Regarding B34, the binding entry was “binds”.
The same measure, in the same setting: then B35, with “binds”.

A further assay concerns the target VEGFR2 (UniProt P35968). As to the kind of experiment: phage display selection.
Regarding B36, the binding entry is recorded as “binds”.
On the same count and under the same terms, then B37, with “binds”.
As for B38, the binding entry was “binds”.
On the same count and under the same terms, under B39 stands “binds”; under B40, “binds”; under B41, “binds”.
Same read-out and setting: under B42 stands “binds”.
